This is an account of results in the supplement of paper PMC10849652.

Chains of the proteins cited; added tags and fusions are not shown. Lines headed by an entry give the natural chain unless they say otherwise; changes in a name come on top.
UniProt O43299: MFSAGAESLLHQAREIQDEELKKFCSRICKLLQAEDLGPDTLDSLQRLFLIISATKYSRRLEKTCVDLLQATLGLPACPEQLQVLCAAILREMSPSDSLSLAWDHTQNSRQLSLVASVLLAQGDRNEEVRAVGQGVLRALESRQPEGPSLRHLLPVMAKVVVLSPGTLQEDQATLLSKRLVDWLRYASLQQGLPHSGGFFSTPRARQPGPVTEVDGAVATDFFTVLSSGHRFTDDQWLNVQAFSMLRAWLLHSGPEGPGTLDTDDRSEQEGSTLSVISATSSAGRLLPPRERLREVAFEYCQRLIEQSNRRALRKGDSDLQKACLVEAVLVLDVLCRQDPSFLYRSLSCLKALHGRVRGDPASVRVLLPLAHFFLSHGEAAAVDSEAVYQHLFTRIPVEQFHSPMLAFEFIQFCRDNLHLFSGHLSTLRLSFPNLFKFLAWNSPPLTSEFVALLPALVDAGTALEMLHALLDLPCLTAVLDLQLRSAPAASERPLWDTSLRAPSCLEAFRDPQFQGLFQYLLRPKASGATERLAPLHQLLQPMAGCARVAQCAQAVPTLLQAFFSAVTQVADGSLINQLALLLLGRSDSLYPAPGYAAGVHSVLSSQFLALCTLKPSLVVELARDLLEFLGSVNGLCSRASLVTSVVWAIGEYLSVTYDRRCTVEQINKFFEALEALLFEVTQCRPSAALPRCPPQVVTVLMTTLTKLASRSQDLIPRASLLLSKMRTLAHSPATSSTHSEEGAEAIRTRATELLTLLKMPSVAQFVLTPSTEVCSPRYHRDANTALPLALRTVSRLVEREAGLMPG
UniProt P02654: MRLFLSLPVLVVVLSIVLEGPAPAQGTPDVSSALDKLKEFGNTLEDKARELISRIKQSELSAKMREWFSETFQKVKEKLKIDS
UniProt Q9NVJ2: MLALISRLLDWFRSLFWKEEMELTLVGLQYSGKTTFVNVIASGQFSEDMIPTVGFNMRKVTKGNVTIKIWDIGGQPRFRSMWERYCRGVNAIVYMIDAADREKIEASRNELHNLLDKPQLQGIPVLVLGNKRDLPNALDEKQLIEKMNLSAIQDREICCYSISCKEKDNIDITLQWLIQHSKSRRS
UniProt Q9BZZ5: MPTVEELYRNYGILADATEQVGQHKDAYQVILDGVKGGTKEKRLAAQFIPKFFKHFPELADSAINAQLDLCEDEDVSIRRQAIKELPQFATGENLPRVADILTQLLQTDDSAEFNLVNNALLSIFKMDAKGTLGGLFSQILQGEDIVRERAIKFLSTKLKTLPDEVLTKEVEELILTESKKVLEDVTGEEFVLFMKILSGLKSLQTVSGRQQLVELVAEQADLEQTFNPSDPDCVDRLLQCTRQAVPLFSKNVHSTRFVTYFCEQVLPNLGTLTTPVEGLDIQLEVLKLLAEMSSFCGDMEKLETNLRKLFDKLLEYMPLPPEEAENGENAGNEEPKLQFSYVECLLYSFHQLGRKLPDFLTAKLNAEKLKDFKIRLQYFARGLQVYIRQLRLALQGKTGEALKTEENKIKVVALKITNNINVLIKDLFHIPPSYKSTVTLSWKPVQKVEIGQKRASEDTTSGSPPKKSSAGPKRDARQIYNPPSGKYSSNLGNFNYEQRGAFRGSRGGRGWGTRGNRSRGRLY
UniProt Q8N6H7: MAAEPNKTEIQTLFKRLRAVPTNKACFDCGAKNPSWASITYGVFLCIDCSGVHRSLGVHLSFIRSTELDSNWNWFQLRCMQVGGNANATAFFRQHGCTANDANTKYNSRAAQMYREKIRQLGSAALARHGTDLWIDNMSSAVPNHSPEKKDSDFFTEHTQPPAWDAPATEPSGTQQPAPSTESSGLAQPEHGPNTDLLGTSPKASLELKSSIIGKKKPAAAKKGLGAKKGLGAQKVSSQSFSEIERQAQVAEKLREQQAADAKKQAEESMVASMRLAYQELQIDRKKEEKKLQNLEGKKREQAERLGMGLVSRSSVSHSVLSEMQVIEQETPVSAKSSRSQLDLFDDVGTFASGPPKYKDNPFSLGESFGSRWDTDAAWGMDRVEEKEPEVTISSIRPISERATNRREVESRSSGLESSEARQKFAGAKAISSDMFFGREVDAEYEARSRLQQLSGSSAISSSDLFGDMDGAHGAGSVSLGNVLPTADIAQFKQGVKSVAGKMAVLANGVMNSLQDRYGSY
UniProt P53367: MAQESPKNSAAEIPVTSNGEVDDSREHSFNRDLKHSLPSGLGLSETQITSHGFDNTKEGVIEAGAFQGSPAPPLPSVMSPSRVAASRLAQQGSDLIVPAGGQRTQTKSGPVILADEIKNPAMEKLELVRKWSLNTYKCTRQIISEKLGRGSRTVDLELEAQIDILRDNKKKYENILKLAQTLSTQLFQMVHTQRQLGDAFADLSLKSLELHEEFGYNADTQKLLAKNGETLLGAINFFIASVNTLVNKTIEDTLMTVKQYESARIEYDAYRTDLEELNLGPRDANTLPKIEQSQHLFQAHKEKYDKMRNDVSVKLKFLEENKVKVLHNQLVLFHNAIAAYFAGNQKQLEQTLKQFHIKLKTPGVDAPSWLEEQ
UniProt Q96P48: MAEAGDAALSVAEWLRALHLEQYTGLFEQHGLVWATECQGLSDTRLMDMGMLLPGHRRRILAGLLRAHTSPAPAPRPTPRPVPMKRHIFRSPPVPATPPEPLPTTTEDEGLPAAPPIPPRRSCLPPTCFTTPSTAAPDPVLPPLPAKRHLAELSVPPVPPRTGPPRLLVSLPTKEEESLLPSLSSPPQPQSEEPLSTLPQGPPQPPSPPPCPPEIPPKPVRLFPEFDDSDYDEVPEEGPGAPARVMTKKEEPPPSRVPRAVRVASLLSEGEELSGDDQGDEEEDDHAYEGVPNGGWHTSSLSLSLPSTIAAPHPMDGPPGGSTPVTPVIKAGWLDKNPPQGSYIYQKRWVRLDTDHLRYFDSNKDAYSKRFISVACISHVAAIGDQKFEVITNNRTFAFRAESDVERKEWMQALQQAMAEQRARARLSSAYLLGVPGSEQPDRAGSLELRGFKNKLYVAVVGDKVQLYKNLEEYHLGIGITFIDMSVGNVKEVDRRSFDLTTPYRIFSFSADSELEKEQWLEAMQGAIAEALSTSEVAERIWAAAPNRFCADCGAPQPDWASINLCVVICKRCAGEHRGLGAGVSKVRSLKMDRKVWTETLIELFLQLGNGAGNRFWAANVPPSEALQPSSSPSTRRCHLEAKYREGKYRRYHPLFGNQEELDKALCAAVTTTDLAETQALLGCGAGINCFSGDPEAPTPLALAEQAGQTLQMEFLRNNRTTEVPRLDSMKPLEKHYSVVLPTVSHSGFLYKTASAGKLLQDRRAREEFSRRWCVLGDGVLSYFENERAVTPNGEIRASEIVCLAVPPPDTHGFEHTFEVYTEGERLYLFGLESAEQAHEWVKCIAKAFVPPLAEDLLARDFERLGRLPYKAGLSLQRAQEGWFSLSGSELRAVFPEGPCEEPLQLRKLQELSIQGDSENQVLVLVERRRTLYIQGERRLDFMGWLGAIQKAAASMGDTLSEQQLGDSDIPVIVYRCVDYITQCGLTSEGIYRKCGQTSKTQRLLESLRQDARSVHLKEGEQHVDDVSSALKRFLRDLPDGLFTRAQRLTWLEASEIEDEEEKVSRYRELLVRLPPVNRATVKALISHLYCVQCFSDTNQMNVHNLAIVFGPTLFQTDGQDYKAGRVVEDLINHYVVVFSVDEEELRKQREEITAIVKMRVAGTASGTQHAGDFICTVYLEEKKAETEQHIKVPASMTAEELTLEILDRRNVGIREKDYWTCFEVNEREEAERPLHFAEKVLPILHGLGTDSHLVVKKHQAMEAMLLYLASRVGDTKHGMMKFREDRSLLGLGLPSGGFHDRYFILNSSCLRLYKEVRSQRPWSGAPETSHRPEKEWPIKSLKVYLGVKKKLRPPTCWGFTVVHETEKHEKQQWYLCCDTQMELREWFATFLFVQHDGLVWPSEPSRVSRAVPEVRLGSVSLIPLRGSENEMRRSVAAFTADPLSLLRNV
UniProt Q6ZUM4: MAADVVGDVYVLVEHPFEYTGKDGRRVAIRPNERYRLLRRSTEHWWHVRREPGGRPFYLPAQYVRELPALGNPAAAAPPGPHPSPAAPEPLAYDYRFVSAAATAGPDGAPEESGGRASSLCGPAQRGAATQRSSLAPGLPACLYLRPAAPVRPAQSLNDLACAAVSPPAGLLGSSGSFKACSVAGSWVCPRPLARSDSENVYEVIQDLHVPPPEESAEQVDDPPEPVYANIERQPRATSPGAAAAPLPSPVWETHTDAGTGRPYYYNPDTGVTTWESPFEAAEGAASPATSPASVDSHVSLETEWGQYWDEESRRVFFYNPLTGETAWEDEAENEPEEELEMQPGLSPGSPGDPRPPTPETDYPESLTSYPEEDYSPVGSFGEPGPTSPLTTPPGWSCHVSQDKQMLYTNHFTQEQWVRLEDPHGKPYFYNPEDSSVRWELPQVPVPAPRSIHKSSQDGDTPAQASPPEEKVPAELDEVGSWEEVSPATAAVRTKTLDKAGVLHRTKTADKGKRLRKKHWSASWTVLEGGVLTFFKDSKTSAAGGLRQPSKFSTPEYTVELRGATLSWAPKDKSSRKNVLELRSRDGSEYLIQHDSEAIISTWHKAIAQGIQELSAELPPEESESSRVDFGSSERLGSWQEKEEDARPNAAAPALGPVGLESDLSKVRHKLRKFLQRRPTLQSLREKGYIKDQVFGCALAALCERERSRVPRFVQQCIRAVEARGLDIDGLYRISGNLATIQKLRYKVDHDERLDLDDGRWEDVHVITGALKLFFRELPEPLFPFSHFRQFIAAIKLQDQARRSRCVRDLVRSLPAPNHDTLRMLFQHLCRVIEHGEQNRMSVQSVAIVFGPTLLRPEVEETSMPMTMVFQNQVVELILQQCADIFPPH
UniProt O95376: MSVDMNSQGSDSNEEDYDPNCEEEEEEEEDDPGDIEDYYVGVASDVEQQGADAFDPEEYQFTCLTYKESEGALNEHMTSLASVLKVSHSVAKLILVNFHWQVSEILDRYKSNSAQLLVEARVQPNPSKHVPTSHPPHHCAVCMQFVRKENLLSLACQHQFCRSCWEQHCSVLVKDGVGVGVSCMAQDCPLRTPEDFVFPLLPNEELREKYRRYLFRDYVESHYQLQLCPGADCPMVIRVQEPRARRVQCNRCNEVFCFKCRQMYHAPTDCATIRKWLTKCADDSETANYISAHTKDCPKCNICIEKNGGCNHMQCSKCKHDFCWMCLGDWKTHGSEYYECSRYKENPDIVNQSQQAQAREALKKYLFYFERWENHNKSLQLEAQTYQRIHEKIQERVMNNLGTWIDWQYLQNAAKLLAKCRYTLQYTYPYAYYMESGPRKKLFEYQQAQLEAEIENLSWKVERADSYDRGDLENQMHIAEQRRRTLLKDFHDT
UniProt P13798: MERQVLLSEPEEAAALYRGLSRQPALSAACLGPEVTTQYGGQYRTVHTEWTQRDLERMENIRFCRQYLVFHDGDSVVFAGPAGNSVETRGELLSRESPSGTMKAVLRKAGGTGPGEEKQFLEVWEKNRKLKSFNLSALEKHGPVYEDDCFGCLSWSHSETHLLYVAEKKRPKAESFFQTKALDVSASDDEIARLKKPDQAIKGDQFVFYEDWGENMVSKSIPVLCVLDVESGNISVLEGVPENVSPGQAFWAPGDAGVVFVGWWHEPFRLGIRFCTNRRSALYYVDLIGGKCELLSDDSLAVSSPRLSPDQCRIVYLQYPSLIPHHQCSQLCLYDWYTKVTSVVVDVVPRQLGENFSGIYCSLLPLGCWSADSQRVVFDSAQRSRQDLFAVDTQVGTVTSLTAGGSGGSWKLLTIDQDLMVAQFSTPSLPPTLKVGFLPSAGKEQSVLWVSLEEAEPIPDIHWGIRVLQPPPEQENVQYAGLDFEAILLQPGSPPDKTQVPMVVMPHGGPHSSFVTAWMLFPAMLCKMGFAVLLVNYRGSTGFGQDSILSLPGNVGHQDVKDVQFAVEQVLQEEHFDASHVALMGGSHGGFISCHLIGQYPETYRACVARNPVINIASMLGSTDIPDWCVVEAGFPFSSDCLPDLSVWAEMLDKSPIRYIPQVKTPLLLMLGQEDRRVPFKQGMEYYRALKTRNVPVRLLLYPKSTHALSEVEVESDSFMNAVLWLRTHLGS

This is one part of the list.

Test in all cases: log2 fold change, soluble protein after heating vs DMSO (PISA); higher = thermal stabilisation; K562 lysate, 10 uM; active = over 0.2 and 3.5 SD of the protein, either way, in both replicates (recomputed)
Compound in assay [1]: NCC(=O)Nc1ccc(-n2nc(C(F)(F)F)cc2-c2ccc3c(ccc4ccccc43)c2)cc1
An outline of the steps:
(§1)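 Pellets of K562 cells were dounce-homogenised in PBS pH 7.4 with 1 mM MgCl2, and the crude extract was held at 1 mg/mL protein for a 30 min treatment with 10 μM compound. Aliquots were heated for 3 min over 48°C-58°C and pooled before NP-40 was added to 0.5% at 4°C. The supernatant from 21,000xg for 90 min was quantified by TMTpro 16plex LC-MS/MS with channel sums equalised. Values are reported from duplicates as log-two fold change in thermal stability relative to solvent controls.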

Compound in another assay: O=C(CCCCCCC(=O)Nc1ccccc1)NO [vorinostat]
An outline of the steps: as §1

Compound in the next assay: O=C(O)c1ccc2c(c1)nc(Nc1cccc(Cl)c1)c1ccncc12 [silmitasertib]
An outline of the steps: as §1

Compound in assay [2]: O=C1NC(=O)C(c2cnc3ccccn23)=C1c1cn2c3c(cc(F)cc13)CN(C(=O)N1CCCCC1)CC2
The gist of the method: as §1

Compound in another assay: c1cn2cc(-c3ccc4cn[nH]c4c3)nc(Nc3ccc(N4CCOCC4)cc3)c2n1 [entospletinib]
An outline of the steps:
as §1

As to AP5Z1 (UniProt O43299), the log2 fold change in assay [1] is inactive: 0.157; in the assay with vorinostat, inactive: 0.037; in the assay with silmitasertib it was inactive: -0.018; in assay [2], inactive: 0.09; with entospletinib, inactive: -0.005.

As for APOC1 (UniProt P02654), the log2 fold change in assay [1] is inactive: 0.061; with vorinostat, inactive: 0.103; with silmitasertib it was inactive: -0.079; in assay [2] it was inactive: -0.028; in the assay with entospletinib, inactive: -0.061.

For ARL8B (UniProt Q9NVJ2), the log2 fold change was inactive: -0.001 in assay [1]; inactive: 0.102 in the assay with vorinostat; inactive: 0.023 in the assay with silmitasertib; inactive: -0.014 in assay [2]; inactive: -0.004 with entospletinib.

API5 (UniProt Q9BZZ5): the log2 fold change in assay [1] is inactive: -0.004; with vorinostat, inactive: 0.101; with silmitasertib, inactive: -0.017; in assay [2], inactive: -0.018; with entospletinib it was inactive: 0.026.

ARFGAP2 (UniProt Q8N6H7): the log2 fold change in assay [1] was inactive: -0.028; in the assay with vorinostat it was inactive: 0.054; with silmitasertib, inactive: 0.007; in assay [2], inactive: -0.082; with entospletinib it was inactive: 0.011.

As for ARFIP1 (UniProt P53367), the log2 fold change in assay [1] was inactive: -0.001; with vorinostat, inactive: -0.21; with silmitasertib, inactive: -0.014; in assay [2], inactive: -0.009; with entospletinib, inactive: -0.001.

With ARAP1 (UniProt Q96P48), the log2 fold change in assay [1] was inactive: -0.04; in the assay with vorinostat, active: -0.379; in the assay with silmitasertib, inactive: 0.017; in assay [2], inactive: -0.014; in the assay with entospletinib it was inactive: -0.012.

As for ARHGAP27 (UniProt Q6ZUM4), the log2 fold change in assay [1] is inactive: 0.067.

Take ARIH2 (UniProt O95376): the log2 fold change is inactive: -0.005 in assay [1]; inactive: 0.157 in the assay with vorinostat; inactive: 0.019 with silmitasertib; inactive: -0.006 in assay [2]; inactive: -0.018 in the assay with entospletinib.

In the case of APEH (UniProt P13798), the log2 fold change is inactive: 0.012 in assay [1]; inactive: 0.12 with vorinostat; inactive: -0.002 with silmitasertib; inactive: -0.011 in assay [2]; inactive: 0.011 with entospletinib.
